The target of this test is T1, human collagen type III (Sigma) (human, UniProt P02461 154-1221, limits assumed).
T1 construct: Purified natural collagen immobilised on the chip (331 RU); also called Collagen type III (human)
T1 sequence (looked up): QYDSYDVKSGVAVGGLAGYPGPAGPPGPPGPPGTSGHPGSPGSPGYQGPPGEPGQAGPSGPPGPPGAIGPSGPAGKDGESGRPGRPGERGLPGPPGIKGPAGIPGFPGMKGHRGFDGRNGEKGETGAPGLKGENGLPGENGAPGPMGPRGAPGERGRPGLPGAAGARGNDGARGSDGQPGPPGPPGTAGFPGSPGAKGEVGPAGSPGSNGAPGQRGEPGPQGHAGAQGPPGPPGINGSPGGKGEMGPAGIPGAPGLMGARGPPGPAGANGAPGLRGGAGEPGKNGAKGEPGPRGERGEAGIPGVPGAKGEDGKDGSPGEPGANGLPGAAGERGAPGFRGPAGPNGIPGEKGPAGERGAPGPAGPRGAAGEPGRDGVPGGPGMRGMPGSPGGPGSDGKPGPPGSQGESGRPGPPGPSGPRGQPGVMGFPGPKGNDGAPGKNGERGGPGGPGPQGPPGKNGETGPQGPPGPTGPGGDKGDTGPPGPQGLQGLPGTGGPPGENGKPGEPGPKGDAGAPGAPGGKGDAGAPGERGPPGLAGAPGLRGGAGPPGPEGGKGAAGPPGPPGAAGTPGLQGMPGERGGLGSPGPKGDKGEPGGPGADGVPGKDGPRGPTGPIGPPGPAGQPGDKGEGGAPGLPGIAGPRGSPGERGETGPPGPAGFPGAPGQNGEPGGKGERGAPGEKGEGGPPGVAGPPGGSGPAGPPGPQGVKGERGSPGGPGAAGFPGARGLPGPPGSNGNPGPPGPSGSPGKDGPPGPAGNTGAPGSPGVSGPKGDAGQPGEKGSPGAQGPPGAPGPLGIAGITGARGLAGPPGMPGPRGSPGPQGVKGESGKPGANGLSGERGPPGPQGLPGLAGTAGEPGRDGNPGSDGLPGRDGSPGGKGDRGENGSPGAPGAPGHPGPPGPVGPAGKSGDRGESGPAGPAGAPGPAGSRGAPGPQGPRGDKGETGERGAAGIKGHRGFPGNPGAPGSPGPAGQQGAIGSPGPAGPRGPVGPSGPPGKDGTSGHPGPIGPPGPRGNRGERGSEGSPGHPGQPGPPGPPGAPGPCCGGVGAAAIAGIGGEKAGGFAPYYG
The test can be described thus: SPR, BIAcore 3000, collagen type III immobilised, GPVI in solution, 25 C. Here is the method: Protein interactions were identified and characterized by SPR technology using the BIAcore® 3000 instrument (BIAcore®, Freiburg, Germany) and methodology (Johnsson and Lindqvist, 1992; Johnsson et al., 1991). Coupling reagents were used according to protocols developed by the supplier. Coupling to the CM 5 sensor chip was done via activated carboxylate groups to free amine groups of human collagen type III (Sigma®). The pH-scouting and the coupling chemistry was performed under standard conditions (Johnsson and Lindqvist, 1992; Johnsson et al., 1991). For coupling the collagen was diluted to 0.125 µg/ml into 10 mM acetate buffer pH 4.5, resulting in 331 RU immobilized material.
For the binding experiments purified recombinant glycoprotein VI was used. The protein was diluted into 20 mM Hepes, pH 7.4, 150 mM NaCl, 5 mM EDTA, 0.005% Tween® 20. All binding experiments were performed at 25° C. and performed in duplicates.
(Surface plasmon resonance follows binding to a sensor surface in real time, without labels.)

These are yes or no findings as the source states them, for the method shown. Some results given as binding are weak or reduced against the parent protein; the word gives no strength.

B1: purified recombinant glycoprotein VI (receptor, UniProt Q9HCN6 21-269, looked up)
chain: QSGPLPKPSLQALPSSLVPLEKPVTLRCQGPPGVDLYRLEKLSSSRYQDQAVLFIPAMKRSLAGRYRCSYQNGSLWSLPSDQLELVATGVFAKPSLSAQPGPAVSSGGDVTLQCQTRYGFDQFALYKEGDPAPYKNPERWYRASFPIITVTAAHSGTYRCYSFSSRDPYLWSAPSDPLELVVTGTSVTPSRLPTEPPSPVAEFSEATAELTVSFTNEVFTTETSRSITASPKESDSPAGPARQYYTKGN
notes: also called GPVI; purified soluble GPVI
On to B1, for which the binding entry is “binds”.

The record behind these values is patent US7507412B2, “Glycoprotein VI fusion proteins” (Merck Patent GmbH, priority 2001, dated 2009).
